In patent publication US20120021039A1, “EXPRESSION OF NEUROPEPTIDES IN MAMMALIAN CELLS” (NsGene A/S, priority 2009, published 2012):

B1: ppGDNF fused to mature galanin: comparative construct: ppGDNF fused to mature human galanin peptide (SEQ ID NO 12) (protein, listed as Homo sapiens)
chain: MKLWDVVAVCLVLLHTASAFPLPAGKRPPEAPAEDRSLGRRRAPFALSSDSNMPEDYPDQFDDVMDFIQATIKRLKRGWTLNSAGYLLGPHAVGNHRSFSDKNGLTS
B2: full length wild type galanin: comparative construct: wild-type human galanin pre-pro-mature-C-terminal peptide (SEQ ID NO 11) (protein, listed as Homo sapiens)
chain: MARGSALLLASLLLAAALSASAGLWSPAKEKRGWTLNSAGYLLGPHAVGNHRSFSDKNGLTSKRELRPEDDMKPGSFDRSIPENNIMRTIIEFLSFLHLKEAGALDRLLDLPAAASSEDIERS

Test system: ARPE-19 cells
Assay: Galanin ELISA of supernatants from ARPE-19 cells transfected with galanin expression constructs
Assay type: cell-based, human
Settings: supernatant of transfected ARPE-19 cells

Molecule	galanin secretion
B1	lead to secretion, but the propeptide was not processed
B2	leads to secretion of galanin
